According to patent publication US5804554A, “Calcium channel blocking polypeptides from filistata hibernalis” (priority 1995, dated 1998):
pIC50: −log10 of the molar value.

Tested on: calcium channels
Conditions: read-out: IC50 values for blocking calcium channels; rat cerebellar granule cells, fura2 fluorescence, 37° C.

`COC(=O)C1=C(C)NC(C)=C(C(=O)OC)C1c1ccccc1[N+](=O)[O-]` [Nifedipine] was tested. Which pIC50 did it give?
Its pIC50 is 7.48.
